Construct, isoform or probe ends are uncertain for at least one entry. For some of these results: Negatives hold for the conditions tested.
Assays:
Test in all cases: binding assay
[1] = target: Taq DNA polymerase (Thermus aquaticus) (UniProt P19821); conditions: iSp18 spacer and 3' amino in DCP1, purified recombinant protein, protein details: New England Biolabs
[2] = tested on: Phusion DNA polymerase; conditions: LNA at GATA and GAAC of 3' 12-mer GATAgcttGAAC of SEQ 2 (mC LNA), PS linkages in the 12-mer; iSp18 spacer and 3' amino in DCP1; no read-through with or without PEG/propanediol, HF or GF buffer; purified recombinant protein; protein details: Thermo Scientific; synthetic backbone
[3] = target: RevertAid reverse transcriptase (UniProt P03355); conditions: LNA at GATA and GAAC of 3' 12-mer GATAgcttGAAC of SEQ 2 (mC LNA), PS linkages in the 12-mer; iSp18 spacer and 3' amino in DCP1; no or very very low read-through, 42 C; purified recombinant protein; protein details: Thermo Scientific; synthetic backbone

## GCGTAACTAGACCATAAGCCGATAGCTTGAACCGGACCAGCAAGCTTAGAGATCACGGTATCCAGATTCGCTCATAGTACACAACTGCCTCCGGTTCAA / GCAGTTGTGTACTATGAGCGA [DTT1 template with DCP1_primer1]
[1]; all DNA phosphodiester, ddPCR EvaGreen supermix with added Taq, many positive droplets, variant of LTT1 template with DCP1_primer1
  binding result: binds

## GCGTAACTAGACCATAAGCCGATAGCTTGAACCGGACCAGCAAGCTTAGAGATCACGGTATCCAGATTCGCTCATAGTACACAACTGCCTCCGGTTCAA / GCAGTTGTGTACTATGAGCGA [LTT1 template with DCP1_primer1]
[2]
  binding result: no binding
[3]
  binding result: no binding
[1]; LNA at GATA and GAAC of 3' 12-mer GATAgcttGAAC of SEQ 2 (mC LNA), PS linkages in the 12-mer, effective read-through only with 10% PEG and 0.31 M propanediol, almost none in standard buffer (FIG. 5A), synthetic backbone
  binding result: binds

From patent US20210071247
